# PubChem BioAssay AID758 (NMMLSC, 2007)
# The whole screen tested about 190,000 compounds, of which about 110 (0.058%) were called active. This list was built around the results that the source calls inconclusive (neither active nor inactive); the mix of calls is not that of the screen.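 The calls were made as follows: active = fluorescent GTP binding to Rab7 beads changed by at least 20 points from the 100% baseline, either direction, mostly lower; inconclusive = compound itself probably fluorescent, or too few beads counted; inactive = the rest.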
# Test system: Rab7 GTPase wild type (dog), Bodipy-FL-GTP binding
# Assay: modulators of GTP binding to Rab7, primary screen, biochemical, wildtype, multiplex bead flow cytometry (AID 758);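 also: median green fluorescence of bound Bodipy-FL-GTP per Rab7 bead population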
# Conditions: GST-Rab7 beads, fluorescent GTP binding, at 10 µM, actives lie on both sides, untreated = 100%, excess cold GTP = 0%
row,SMILES,GTP binding activity (percent of control)
1,O=C(/C=C/c1ccc(N2CCC(c3ccccc3)=N2)cc1)c1ccccc1,inconclusive: 295%
2,Cc1cc(C)n2nc(SC(C)C(=O)Nc3ccc(Cl)cn3)nc2n1 (stereo not drawn),inactive: 108%
3,NS(=O)(=O)c1ccc(CCNC(=O)CN2CCC(Cc3ccccc3)CC2)cc1,inconclusive: 91%
4,COc1ccc(C2CC(C(F)(F)F)n3nc(C(=O)NCc4cn(C)nc4C)c(Cl)c3N2)cc1 (stereo not drawn),inconclusive: 103%
5,Cc1ccc(S(=O)(=O)CC(CN2CCCCC2)N2CCCCC2)cc1 (stereo not drawn),inconclusive: 95%
6,Cc1ccc(OCC(=O)Nc2ccc3c(c2)CCC3)c([N+](=O)[O-])n1,inconclusive: 94%
7,O=C(COC(=O)C12CC3CC(CC(C3)C1)C2)Nc1nc2c(F)c(F)c(F)cc2s1,inactive: 93%
8,CCC(=O)Nc1nc(-c2ccccc2)ns1,inconclusive: 102%
9,CCOc1ccccc1/C=N/NC(=O)c1cccc(S(=O)(=O)N(CC)CC)c1,inconclusive: 92%
10,COc1ccc(/C=N/NC(=O)c2ccncc2)cc1Cn1nc([N+](=O)[O-])c(Br)c1C,inactive: 97%
11,CN(C)C(=O)C1CCC(=O)N1Cc1cccs1 (stereo not drawn),inactive: 92%
12,CCOC(=O)c1ccc(Nc2ccc(-c3ccc(OC)c(OC)c3)nn2)cc1,inconclusive: 97%
13,COc1ccc(N2CCN(c3nc(=S)n(-c4ccccc4)c(C)c3C(C)=O)CC2)cc1,inconclusive: 101%
14,COC(=O)c1ccc(NC(=O)CSc2nncn2C)cc1,inconclusive: 100%
15,CC(NC(=O)c1cccnc1)C(c1cccs1)N1CCOCC1 (stereo not drawn),inconclusive: 103%
16,COC(=O)c1ccc(NC(=S)NC2c3ccccc3CC2O)cc1 (stereo not drawn),inactive: 105%
17,CC1CCCCC1NC(=O)COC(=O)Cc1ccc(Br)cc1 (stereo not drawn),inconclusive: 98%
18,Cc1ccc(-c2cccc(CN3CCN(C4CCN(C(C)C)CC4)C(CCO)C3)c2)o1 (stereo not drawn),inactive: 101%
19,COC(=O)c1ccc(CSc2nnc(-c3ccncc3)n2Cc2ccccc2)o1,inconclusive: 102%
20,O=C(CCN1C(=O)C2CCCCC2C1=O)Nc1ccc(F)c(F)c1F (stereo not drawn),inactive: 103%
21,CC1(C)COC(/C=C/c2ccc([N+](=O)[O-])cc2)=N1,inconclusive: 105%
22,Cc1ccc(NC(=O)C(C)N2C(=O)c3ccccc3C2=O)cc1S(=O)(=O)N1CCOCC1 (stereo not drawn),inactive: 94%
23,CC(OC(=O)c1nsc(Cl)c1Cl)C(=O)NCc1ccc2c(c1)OCO2 (stereo not drawn),inconclusive: 86%
24,O=C(c1ccc(Cl)c(Cl)c1)N1CCC(=O)N(C(COCc2ccccc2)Cc2ccccc2)CC1 (stereo not drawn),inactive: 94%

row,SMILES,GTP binding activity (percent of control)
1,C/C(=N\NC(=O)c1cccc(C)c1)c1ccc(N2CCOCC2)cc1,inconclusive: 96%
2,COCCCn1c(SCc2cc(=O)[nH]c3ccccc23)nnc1-c1ccco1,inconclusive: 95%
3,CC(=O)c1ccc(NC(=O)CSc2nnc(NC(=O)CN3CCOCC3)s2)cc1,inconclusive: 102%
4,O=C(Nc1ccc(Cl)cc1C(F)(F)F)c1ccccc1,inactive: 98%
5,COCc1cc(C)nc(OCC(=O)N/N=C/c2ccc(O)cc2O)c1C#N,inconclusive: 94%
6,O=C(CNC(=O)C1CCCCC1)OCC(=O)c1ccc(Cl)s1,inconclusive: 94%
7,COc1cccc(C(=O)CN(C(=O)c2ccc(Cl)cc2Cl)N2C(=O)c3ccccc3C2=O)c1,inactive: 98%
8,Cc1cc(Cl)ccc1OC(C)C(=O)NCCCn1ccnc1 (stereo not drawn),inactive: 103%
9,COc1ccc(/C=N/NC(=O)c2cccc([N+](=O)[O-])c2)cc1OC,inactive: 109%
10,CC(C(=O)NCC1CCCCC1)N1CCc2ccccc2C1 (stereo not drawn),inconclusive: 94%
11,O=C1CC(Cc2ccccc2)C(=O)N1CCCn1ccnc1 (stereo not drawn),inconclusive: 101%
12,Cc1cc(NC(=O)c2ccccc2)nc2c1c(=O)oc1ccccc12,inconclusive: 93%
13,COc1ccc2oc(=O)c(C(=O)N3CCN(c4ccccc4F)CC3)cc2c1,inconclusive: 96%
14,CC(C)(C)NS(=O)(=O)c1ccc(CCC(=O)N2CCCC2)cc1,inactive: 91%
15,O=C1CN(CC(=O)Nc2cccc(Cl)c2Cl)c2ccccc2N1,inconclusive: 96%
16,CCC(Oc1ccc2ccccc2c1)C(=O)O (stereo not drawn),inconclusive: 121%
17,O=C(Cn1cnc2c(nnn2Cc2ccc(F)cc2)c1=O)NC1CCCC1,inconclusive: 96%
18,CCOC(=O)c1cc(C(=O)OCC)c2ccccn2c1=O,active: 76%
19,CCN(CC)CCNC(=O)c1cc2cc(Br)ccc2s1,inactive: 97%
20,Cc1csc(=Nc2ccccc2)n1Cc1ccco1,inactive: 104%
21,CCCCn1c(N)c(Sc2ccc(C)cc2)c(=O)[nH]c1=O,inconclusive: 106%
22,C/C(N)=C(/C#N)C(=O)CSc1cc(C)c2ccccc2n1,inactive: 92%
23,C(=N\Nc1nc(Nc2ccccc2)nc(Nc2ccccc2)n1)/c1cccnc1,inconclusive: 96%
24,O=C(N/N=C/c1cccc(O)c1)c1ccc(NC(=O)c2cccc([N+](=O)[O-])c2)cc1,inconclusive: 91%

row,SMILES,GTP binding activity (percent of control)
1,COc1ccc(CS(=O)(=O)CC2(O)CCN(C(=O)c3cccc(C(F)(F)F)c3)CC2)cc1,inactive: 96%
2,O=C(CCc1nnc(CCCCc2ccccc2)o1)NCCN1CCCCC1=O,inactive: 105%
3,CC1(C)CC(=O)c2c(O)cc(OCc3ccc([N+](=O)[O-])cc3)cc2O1,inconclusive: 101%
4,Cc1cnc(C(=O)OCC(=O)N(Cc2ccccc2)C(C)C)cn1,inactive: 96%
5,O=C(OCc1cc2ccccc2[nH]c1=O)C1CCCO1 (stereo not drawn),inconclusive: 103%
6,Clc1cccc(Cl)c1COc1ccccc1CNn1cnnc1,inactive: 107%
7,O=C1c2ccccc2C(=O)N1CCCOc1ccccc1,inconclusive: 98%
8,O=C(COC(=O)C1CCN(/C=C/C(=O)C(F)(F)F)CC1)Nc1cccc(F)c1,inactive: 102%
9,Cc1ccc(OCC(=O)N/N=C\c2ccc(O)cc2)c([N+](=O)[O-])c1,inconclusive: 94%
10,CCOc1cc(C2C(C#N)=C(N)OC3=C2C(=O)CC(C)(C)C3)cc([N+](=O)[O-])c1O (stereo not drawn),inconclusive: 93%
11,Cc1[nH]c2ccccc2c1C(=O)CNc1nccs1,inconclusive: 486%
12,CCC(C)(C)NC(=O)c1ccc(S(=O)(=O)N(C)c2ccccc2OC)cc1,inconclusive: 93%
13,CC(C)Oc1cc(N)c(Cl)cc1Cl,inactive: 97%
14,CC(C)c1ccc(NC(=O)COc2ccc(F)cc2C(=O)c2cnn(-c3ccccc3)c2)cc1,inactive: 100%
15,CCCN(CCC)c1cc(Cl)nc(N)n1,inconclusive: 94%
16,O=C(COc1ncnc2cc([N+](=O)[O-])ccc12)NCc1ccc2c(c1)OCO2,inconclusive: 78%
17,CCCOc1ccc(N2CC(C(=O)Nc3ccc(N4CCOCC4)cc3)CC2=O)cc1 (stereo not drawn),inactive: 98%
18,COc1ccc(S(=O)(=O)N(C)CC(=O)N2CCOCC2)cc1Cl,inconclusive: 88%
19,COc1ccccc1-n1c(=O)c2c3c(sc2n2c(=S)[nH]nc12)CCC3,inconclusive: 90%
20,CCOC(=O)N1CCC(NC(=O)CCc2c(C)nc3c(c(C)nn3C(C)(C)C)c2C)CC1,inconclusive: 102%
21,Cn1c(COc2ccc3ccccc3c2)nnc1SCC(=O)OC1CCCCC1,inactive: 100%
22,O=C1CS(=O)CN1c1ccc(Oc2ccccc2)cc1 (stereo not drawn),inactive: 93%
23,Cc1ccc2[nH]cc(C(=O)CCl)c2c1,inconclusive: 102%
24,Cc1c(Cl)sn(-c2ccc(Cl)cc2)c1=O,inactive: 105%

# Not a retest: an excerpt of the list.
row,SMILES,GTP binding activity (percent of control)
5,O=C(OCc1cc2ccccc2[nH]c1=O)C1CCCO1 (stereo not drawn),inconclusive: 103%
6,Clc1cccc(Cl)c1COc1ccccc1CNn1cnnc1,inactive: 107%
7,O=C1c2ccccc2C(=O)N1CCCOc1ccccc1,inconclusive: 98%
8,O=C(COC(=O)C1CCN(/C=C/C(=O)C(F)(F)F)CC1)Nc1cccc(F)c1,inactive: 102%
9,Cc1ccc(OCC(=O)N/N=C\c2ccc(O)cc2)c([N+](=O)[O-])c1,inconclusive: 94%

# Next part:

row,SMILES,GTP binding activity (percent of control)
1,Cc1nn(C)c(C)c1CNC(=O)c1cnn2c1NC(c1ccccc1)CC2C(F)(F)F (stereo not drawn),inconclusive: 105%
2,O=C(O)c1ccccc1SCc1ccc2c(c1)OCO2,active: 121% [activator]
3,COc1cc(/C=N/NC(=S)Nc2cccc(C(=O)O)c2)cc(OC)c1OC,inconclusive: 97%
4,O=C(COC(=O)/C=C/c1ccc(Cl)cc1)Nc1ccc2c(c1)OCCO2,inactive: 87%
5,Cc1ccc(C(=O)CC(=O)COc2ccc(Cl)cc2C)cc1,inconclusive: 90%
6,CCC(=O)N1c2ccc(S(=O)(=O)N(CCO)Cc3ccccc3)cc2CC1C (stereo not drawn),inconclusive: 104%
7,CCOc1c(O)ccc(/C=C2\SC(=S)NC2=O)c1[N+](=O)[O-],inconclusive: 86%
8,CCOC(=O)c1c(C)[nH]c(C(=O)COC(=O)C(C)N2C(=O)C3CCCCC3C2=O)c1C (stereo not drawn),inactive: 97%
9,CC(=O)c1sc(NC(=O)C(C)C)nc1C,inconclusive: 101%
10,CC(C)NC(=O)Cn1cc(C(=O)C2CC2)c2ccccc21,inactive: 96%
11,CC(=O)Nc1nonc1-c1nc2ccccc2n1Cc1nnc(C)o1,inconclusive: 106%
12,Cc1ccc(NC(=O)c2ccc3c(c2)C(=O)N(CC2CCCO2)C3=O)cc1C (stereo not drawn),inconclusive: 95%
13,CCS(=O)(=O)N1CCN(c2ccc([N+](=O)[O-])c(NCC3CCCO3)c2)CC1 (stereo not drawn),inconclusive: 97%
14,COC(=O)[C@@H](NC(=O)O[C@@H]1C(=O)c2ccc(OC)cc2O[C@H]1c1cccc(C(F)(F)F)c1)C(C)C,inactive: 98%
15,COC(=O)c1ccc(C)c(NC(=O)CCc2ccc(OC)c(OC)c2)c1,inactive: 97%
16,O=C1Nc2ccc(Br)cc2C12NNc1ccccc1O2 (stereo not drawn),inactive: 96%
17,Cc1c(Br)c(C(F)(F)F)nn1CC(=O)N1CCCC1,inconclusive: 92%
18,CCc1ccc2c(c1)/C(=N/OC)C(=O)N2,inactive: 101%
19,CCOC(=O)CN(Cc1sccc1C)C(=O)Nc1ccc(OC)cc1OC,inactive: 99%
20,Cc1ccc(S(=O)(=O)n2nc(OC(=O)C3CCCCC3)cc2N)cc1,inconclusive: 103%
21,CCOc1ccc(Cn2c3ccc(OC)cc3c3nc4ccccc4nc32)cc1,inconclusive: 121%
